The list shows a part of the results. Many values rest on one well or one pass, so single values are uncertain.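 Cells were imaged in 1,536-well plates, and nuclei stained with an antibody against cleaved PARP were counted against all DNA-stained nuclei to give the apoptosis fraction. Screening doses were chosen to leave most cells alive, and resting and induced cleaved-PARP levels differ strongly between cell lines.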
Tests used:
Assay in all cases: cleaved PARP positive nuclei fraction relative to DMSO control; melanoma cells; higher = more apoptosis
Settings in all cases: library dose: low library concentration; 72 h
A101D = system: A101D
A2058 = system: A2058
C32 = system: C32
CBRC008 = system: CBRC008 (line from a melanoma biopsy)
CBRC014 = system: CBRC014 (line from a melanoma biopsy)
CBRC016 = system: CBRC016 (line from a melanoma biopsy)
CBRC017 = system: CBRC017 (line from a melanoma biopsy)
COLO792 = system: COLO792
COLO800 = system: COLO800
COLO829 = system: COLO829
G361 = system: G361
IPC-298 = system: IPC-298
IST-MEL1 = system: IST-MEL1
LOXIMVI = system: LOXIMVI
A375 = system: A375
CBRC034 = system: CBRC034 (line from a melanoma biopsy)
MEL-HO = system: MEL-HO

SMILES | cleaved PARP positive nuclei fraction (A101D) [%] | cleaved PARP positive nuclei fraction (A2058) [%] | cleaved PARP positive nuclei fraction (C32) [%] | cleaved PARP positive nuclei fraction (CBRC008) [%] | cleaved PARP positive nuclei fraction (CBRC014) [%] | cleaved PARP positive nuclei fraction (CBRC016) [%] | cleaved PARP positive nuclei fraction (CBRC017) [%] | cleaved PARP positive nuclei fraction (COLO792) [%] | cleaved PARP positive nuclei fraction (COLO800) [%] | cleaved PARP positive nuclei fraction (COLO829) [%] | cleaved PARP positive nuclei fraction (G361) [%] | cleaved PARP positive nuclei fraction (IPC-298) [%] | cleaved PARP positive nuclei fraction (IST-MEL1) [%] | cleaved PARP positive nuclei fraction (LOXIMVI) [%] | cleaved PARP positive nuclei fraction (A375) [%] | cleaved PARP positive nuclei fraction (CBRC034) [%] | cleaved PARP positive nuclei fraction (MEL-HO) [%]
CCCCCCCCc1ccc(CCC(N)(CO)CO)cc1 [fingolimod] + COc1cc(N2CCC(N3CCN(C)CC3)CC2)ccc1Nc1ncc(Cl)c(Nc2ccccc2S(=O)(=O)C(C)C)n1 [NVP-TAE684] (first compound 2 µM, partner dose 0.08 µM) | 49.2 | 136 | 89.2 | 59.6 | 99.7 | 55.7 | 229 | 77.2 | 104 | 135 | 110 | 97 | 121 | 53.5 |  |  | 
CC(=O)O[C@@]12CO[C@@H]1C[C@H](O)[C@@]1(C)C(=O)[C@H](O)C3=C(C)[C@@H](OC(=O)[C@H](O)[C@@H](NC(=O)OC(C)(C)C)c4ccccc4)C[C@@](O)([C@@H](OC(=O)c4ccccc4)[C@H]21)C3(C)C [Docetaxel] + Cc1cc([N+](=O)[O-])ccc1NS(=O)(=O)c1cc(Cl)ccc1Cl [FH535] (first compound 0.0001 µM, partner dose 1 µM) | 109 | 2980 | 281 | 659 | 188 | 1800 | 227 | 258 | 316 | 143 | 307 | 267 | 89.3 | 167 |  |  | 
CCCCCCCCc1ccc(CCC(N)(CO)CO)cc1 [fingolimod] + COc1ccc(COc2ccc(Cc3cnc(N)nc3N)cc2OC)cc1 [GW2580] (first compound 2 µM, partner dose 1 µM) | 31.6 | 159 | 44.4 | 123 | 112 | 53.5 | 63.9 | 102 | 135 | 62 | 81.6 | 52.5 | 178 | 50.1 |  |  | 
C[C@@H](N)c1ccc(C(=O)Nc2ccnc3[nH]ccc23)cc1 + Cn1nnc2c(C(N)=O)ncn2c1=O [temozolomide] (first compound 0.4 µM, partner dose 2 µM) | 58.8 | 101 | 86.9 | 89 | 170 | 112 | 92.4 | 96.2 | 96.1 | 166 | 154 | 84.5 | 34.2 | 393 | 59.7 | 124 | 162
NC(=O)c1ccc(N(C(N)=O)c2c(F)cccc2F)nc1-c1ccc(F)cc1F + CS(=O)(=O)c1ccc(C(=O)Nc2ccc(Cl)c(-c3ccccn3)c2)c(Cl)c1 [vismodegib] (first compound 0.4 µM, partner dose 1 µM) | 79.6 | 87.8 | 70.4 | 57.2 | 89.9 | 85.4 | 105 | 132 | 79.5 | 49.8 | 82.1 | 81.1 | 56.9 | 93.2 | 32.8 | 46.5 | 47.4
NC(=O)c1ccc(N(C(N)=O)c2c(F)cccc2F)nc1-c1ccc(F)cc1F + COCC[n+]1c2c(n(Cc3cnccn3)c1C)C(=O)c1ccccc1C2=O [YM155] (first compound 0.4 µM, partner dose 0.0004 µM) | 25.6 | 77.3 | 72.4 | 392 | 95.1 | 96.8 | 74.1 | 82.5 | 182 | 85.3 | 83 | 195 | 75 | 141 | 118 | 88.4 | 61.9

Reference: the supplement of paper PMC4604168 (melanoma cell lines)
